Source: article PMC9722908
These are yes or no findings as the source states them, for the method shown. In cells and extracts the contact can be indirect. Binding can be weak; no strength is given.

The chains behind the UniProt entries cited, without tags or fusion partners. Where a name states a change or a piece, a line headed by the entry shows the natural chain unless it says otherwise.
UniProt P06803: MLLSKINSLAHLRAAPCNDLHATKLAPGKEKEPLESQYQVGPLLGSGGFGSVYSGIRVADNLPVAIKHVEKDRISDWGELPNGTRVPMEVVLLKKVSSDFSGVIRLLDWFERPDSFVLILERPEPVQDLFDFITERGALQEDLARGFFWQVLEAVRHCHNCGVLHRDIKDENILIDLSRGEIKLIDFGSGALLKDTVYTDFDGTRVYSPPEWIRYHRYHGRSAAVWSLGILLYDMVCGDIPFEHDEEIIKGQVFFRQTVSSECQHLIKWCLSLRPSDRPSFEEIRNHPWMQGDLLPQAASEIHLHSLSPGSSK
UniProt Q60803: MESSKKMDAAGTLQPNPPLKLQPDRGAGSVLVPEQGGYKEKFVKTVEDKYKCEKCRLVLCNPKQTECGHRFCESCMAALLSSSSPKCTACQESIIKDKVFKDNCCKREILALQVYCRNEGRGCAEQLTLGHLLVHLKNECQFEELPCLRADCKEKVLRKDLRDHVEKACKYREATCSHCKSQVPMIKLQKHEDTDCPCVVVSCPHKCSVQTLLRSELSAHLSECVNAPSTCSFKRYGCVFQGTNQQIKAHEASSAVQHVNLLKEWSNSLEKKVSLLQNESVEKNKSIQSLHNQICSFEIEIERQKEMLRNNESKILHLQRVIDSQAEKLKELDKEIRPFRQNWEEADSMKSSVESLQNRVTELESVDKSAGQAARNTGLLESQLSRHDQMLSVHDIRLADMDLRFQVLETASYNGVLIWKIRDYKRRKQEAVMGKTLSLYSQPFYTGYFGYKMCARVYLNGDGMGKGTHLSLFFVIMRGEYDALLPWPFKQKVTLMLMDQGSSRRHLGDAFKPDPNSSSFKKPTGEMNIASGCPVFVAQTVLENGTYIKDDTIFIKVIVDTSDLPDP

Target: endogenous Pim1 of BMDMs (mouse (endogenous in BMDMs)) (UniProt P06803)
Test: co-IP; endogenous proteins; BMDMs stimulated with LPS (100 ng ml^-1) for 1 h, immunoprecipitation with an anti-Pim1 antibody, immunoblot

binding: binds
Substance: endogenous TRAF3 of BMDMs (from UniProt Q60803 1-567)
